Test results published in the supplement of paper PMC10338343.
± gives the standard deviation. Only a part is listed here, and it is no random draw. Many of these values have a large error.

system: MILI (PIWIL2) piRISC loaded with piRNA #1 (26 nt); assay: pre-steady-state target cleavage rate (min^-1); MIWI and MILI are mouse PIWI proteins and EfPiwi is from a freshwater sponge; tags in brackets are library labels; higher = faster piRNA-guided slicing of the target; conditions: guide: piRNA #1 5'p-UGAGGUAGUAGGUUGUAUAGUAUCCA; auxiliary factor: 500 nM mouse GTSF1
How it was run: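 A transcribed, DNA-blocked target RNA library (0.1 nM) and 1 nM active affinity-purified piRISC bearing one synthetic guide were incubated in HEPES–potassium acetate buffer at 33 °C for 0–8 or 0–960 min, either with or without 500 nM GTSF1 partner protein. Uncleaved targets were sequenced, normalised to depth and to weakly complementary targets, and pooled over three trials, with k3 capped at 0.0001 min^-1. The pre-steady-state cleavage rate was derived with a burst-and-steady-state fit.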

Sequence | pre-steady-state target cleavage rate
GGAGACGAUACUAUACAACCUUCUAGCUCA | 0.0027 ± 0.0031
GGAGACCUAACAAUAGAACCUACUACCUCA | 0.0656 ± 0.012
GGAGAGGAUACUAUACAACCUUGUACCUCA | 0.000938 ± 0.004
GGAGACCUAUGAUAUGUACCUACUAGCCUCA | 0.000106 ± 0.025
GGAGUGGAUACUAUACAACCUUGUACCUCA | 0.0009 ± 0.005
GGAGACCUAUGAAUACAACCAUGAUGGAGA [g11:g18:cont:t1A] | 0.000492 ± 0.01
GGAGUCGAUACUAUACAUCCUACUACCUCA | 0.313 ± 0.017
GGAGACCUAUGAUAUGAACCGACUACCUCA | 0.000382 ± 0.007
GGAGUGGAUACUAUACAACCAACUUCCUCA | 0.00125 ± 0.0037
GGAGAGGUAUACUAUACAACCUACUACCUCA | 0.111 ± 0.0086
GGAGACCUAUCUAUUCAACCUACUACCUGA | 0.0654 ± 0.014
GGAGUGGAUACCUAUACAACCUACUACCUCA | 0.0993 ± 0.019
GGAGACGAUACUAUACAACCUACCUACCUCA | 0.131 ± 0.011
GGAGUGGAAACUAAACAACCUACUACCUCA | 0.201 ± 0.02
GGAGACCAUACUAUACUUCCUACUACCUCA | 0.226 ± 0.021
GGAGACCUAACUAUAGUACCUACUACCUCA | 0.122 ± 0.022
GGAGACGAUACUAUACAUCCUACUAGCUCA | 0.173 ± 0.027
GGAGACCUAUGAUAUGAACCAACUACCUGA | 0.000171 ± 0.014
GGAGACGAUGACUAUACAACCUACUACCUCA | 0.151 ± 0.02
GGAGUGGAUACUAUUGUACCUACUACCUCA | 0.115 ± 0.0083

Rewritten as labelled records: part of the list above
GGAGUGGAUACUAUACAACCAACUUCCUCA
  pre-steady-state target cleavage rate: 0.00125 ± 0.0037
GGAGACCUAACUAUAGUACCUACUACCUCA
  pre-steady-state target cleavage rate: 0.122 ± 0.022

Remaining list, next part.

Sequence | pre-steady-state target cleavage rate
GGAGACCUAUGUAUACAACCUUCUACCUCA | 0.00351 ± 0.0017
GGAGACCUAUGAUAUCGAACCUACUACCUCA | 0.000841 ± 0.0053
GGAGACCUAUGAAACAACCUACUACCUCA | 0.00673 ± 0.0031
GGAGACCAUACGAUACAACCUACUACCUCA | 0.255 ± 0.028
GGAGACCUAUGAUAUCUACCUACUUCCUCA | 0.000169 ± 0.019
GGAGACCAUACUAUACAACCUUCUACCUGA | 0.00324 ± 0.0032
GGAGACCUAUGAUAUCAUCCUACUAGCUCA | 0.00174 ± 0.0036
GGAGACCUAACUAUACAACCUACUACCUCCA | 0.123 ± 0.021
GGAGACGAUACUAUACAACCUACUACCCA | 0.107 ± 0.024
GGAGACCAUACUAUACAACCAACUACCUGA | 0.00261 ± 0.0037
GGAGACCUAACUAAACAACCUUCUACCUCA | 0.00364 ± 0.0053
GGAGACCUAACUAUACAACACUACUACCUCA | 0.000183 ± 0.028
GGAGACCUUACUAUACAACCUACUACCCUCA | 0.17 ± 0.019
GGAGACCUAACUAUACAACCUUCUAGCUCA | 0.0014 ± 0.0091
GGAGACCUAUGAUAUGAACCUACUACACUCA | < 0.0001
GGAGACCUAUCUAUACAAACUACUACCUCA | 0.171 ± 0.015
GGAGUGGAUACUAUACAACCUAGAACCUCA | 0.0036 ± 0.0022
GGAGAGGAUCUAUACAACCUACUACCUCA | 0.171 ± 0.013
GGAGACCUAUGAUAUCAACCUACAACCUGA | 0.00031 ± 0.011
GGAGACCUAUCUAUAGAACCUACUACCUGA | 0.00618 ± 0.0029
